Some of these results come from one statement about several compounds together.
Tests used:
[1] = tested on: Tetranychus urticae Koch (two spotted spider mite); assay: Control effect test for Tetranychus urticae Koch (two spotted spider mite); format: in vivo; settings: active ingredient concentration 4 ppm; soybean seedlings with 35 female adults immersed; 25° C.; after 13 days; no replication
Protocol: A wettable powder prepared based on Formulation Example 2 was diluted with water into an active ingredient concentration of 4 ppm. In the solution were immersed soybean seedlings which had been inoculated with 35 female adults of two spotted spider mite. The soybean seedlings were dried in the air and placed in a thermostat of 25° C. After 13 days, the number of living female adults was examined and the control value of the active ingredient was determined using the calculation formula of the following Mathematical Expression 1. This test was conducted with no replication. Control value=100−[(number of living female adults after 13 days, in treated seedlings)/(number of living female adults after 13 days, in non-treated seedlings)]×100 [Mathematical Expression 1]
Tests similar to the above were conducted using, as comparative compounds, compound Nos. 22 and 23 described in JP-A-1975-29744, compound Nos. 3, 4, 5, 6 described in JP-A-1976-19121 and compound Nos. 18, 19 and 36 described in JP-A-1988-41451. The structures of these comparative compounds are as follows.

[2] = tested on: Nilaparvata lugens Stál (brown rice planthopper); assay: Insecticidal activity test for Nilaparvata lugens Stál (brown rice planthopper); format: in vivo; settings: active ingredient concentration 100 ppm; sprouting unhulled rice immersed; 10 3-instar larvae; 25° C.; after 6 days; no replication

SMILES	control value [1]	mortality [2] [%]
Cc1cc(F)c(OCCc2ccc(OS(=O)(=O)C(F)(F)F)cc2)cc1SCC(F)(F)F [A-0798]	≥ 90	≥ 90
CC(=NOCCOc1cc([S+]([O-])CC(F)(F)F)c(C)cc1F)C(F)(F)F (stereo not drawn) [A-0969]	≥ 90	≥ 90
N#Cc1cc(F)c(OCCCCCCl)cc1SCC(F)(F)F [A-0277]	≥ 90	≥ 90
CC(=NOCCCCOc1cc([S+]([O-])CC(F)(F)F)c(C)cc1F)C(F)(F)F (racemic) [A-0985]	≥ 90	≥ 90
Cc1cc(F)c(OCCCCS(=O)(=O)C(F)F)cc1SCC(F)(F)F [A-0610]	≥ 90	≥ 90
[O-][S+](CC(F)(F)F)c1cc(OCCCCSC(F)(F)F)c(F)cc1Cl (stereo not drawn) [A-0418]	≥ 90	≥ 90
Cc1cc(F)c(OCCCCCSC(F)(F)F)cc1[S+]([O-])CC(F)(F)F (stereo not drawn) [A-0432]	≥ 90	≥ 90
Fc1cc(Cl)c(SCC(F)(F)F)cc1OCCc1ccc(SC(F)(F)F)cc1 [A-0787]	≥ 90	≥ 90
Cc1cc(F)c(OCCCC2CCC(C(F)(F)F)CC2)cc1SCC(F)(F)F (stereo not drawn) [A-0338]	≥ 90	≥ 90
O=S(=O)(CCCCCOc1cc(SCC(F)(F)F)c(Cl)cc1F)C(F)F [A-0617]	≥ 90	≥ 90
CC(=NOCCCCCOc1cc([S+]([O-])CC(F)(F)F)c(C)cc1F)C(F)(F)F (racemic) [A-0992]	≥ 90	≥ 90
[O-][S+](CC(F)(F)F)c1cc(OCCc2ccc(C(F)(F)F)cc2)c(F)cc1Cl (stereo not drawn) [A-0766]	≥ 90	≥ 90
Cc1cc(F)c(OCCCc2ccc(C(F)(F)F)cc2)cc1SCC(F)(F)F [A-0838]	≥ 90	≥ 90
Cc1cc(F)c(OCCCc2cc(F)c(F)c(F)c2)cc1SCC(F)(F)F [A-0855]	≥ 90	≥ 90
Cc1cc(F)c(OCCCCNS(=O)(=O)C(F)(F)F)cc1[S+]([O-])CC(F)(F)F (stereo not drawn) [A-1159]	≥ 90	≥ 90
Cc1cc(F)c(OCCCSC(F)=C(F)C(F)(F)F)cc1[S+]([O-])CC(F)(F)F (stereo not drawn) [A-0683]	≥ 90	≥ 90
Cc1cc(F)c(OCCCNS(=O)(=O)C(F)(F)F)cc1SCC(F)(F)F [A-1140]	≥ 90	≥ 90
Cc1cc(F)c(OCCOS(C)(=O)=O)cc1SCC(F)(F)F [A-1032]	≥ 90	≥ 90
Cc1cc(F)c(OCCCc2cccc(C(F)(F)F)c2)cc1SCC(F)(F)F [A-0844]	≥ 90	≥ 90
CC(=NOCCCCOc1cc(SCC(F)(F)F)c(C)cc1F)C(F)(F)F [A-0983]	≥ 90	≥ 90
CC(=NOCCCOc1cc(SCC(F)(F)F)c(C)cc1F)C(Cl)(Cl)Cl [A-0979]	≥ 90	≥ 90

From patent US10023532B2, “Alkyl phenyl sulfide derivative and pest control agent” (KUMIAI CHEMICAL INDUSTRY CO., LTD., priority 2012, dated 2018)
